{"source": "PubChem BioAssay AID686937 (Drosophila RNAi Screening Center, 2013)", "aim": "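Genes in the fly needed for secretion of protein constitutively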 (primary screen)", "system": "Drosophila S2 cells expressing secreted horseradish peroxidase", "knock-down reagent": "long dsRNA against Drosophila genes", "time to read-out": "about 5.5 days (5 days dsRNA, then 12 h reporter induction)", "conditions": "reporter expression induced after 5 days of dsRNA, read 12 h later; inducer not stated", "measured": "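Chemiluminescent measurement of peroxidase in the medium 12 h after reporter induction, following 5 days of dsRNA, given as a z-score per plate; higher means more secretion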", "reading the numbers": "z-score: higher = more reporter secreted into medium", "note": "The screen tested about 23,000 reagents; shown is an unselected part of those with a known target gene and a result. 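Reduced-secretion tags in replicate 1 do not always agree with the z-scores; no criterion for assigning the tags was given.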 Names joined by + are all predicted targets of the reagent. Further read-outs or replicates are left out here. Not given: the amount of reagent."}
{"gene": "fiz", "dsRNA": "DRSC20188", "z-score, replicate 1": 0.04}
{"gene": "vas (retired record)", "dsRNA": "DRSC22007", "z-score, replicate 1": 0.25}
{"gene": "CG10479", "dsRNA": "DRSC09733", "z-score, replicate 1": 0.72}
{"gene": "Ir67c", "dsRNA": "DRSC22097", "z-score, replicate 1": 0.35}
{"gene": "Pef", "dsRNA": "DRSC06695", "z-score, replicate 1": 0.29}
{"gene": "CG12402", "dsRNA": "DRSC14508", "z-score, replicate 1": 0.48}
{"gene": "Ir8a", "dsRNA": "DRSC17817", "z-score, replicate 1": 0.39}
{"gene": "Ir8a", "dsRNA": "DRSC17869", "z-score, replicate 1": 0.46}
{"gene": "CG32191", "dsRNA": "DRSC10522", "z-score, replicate 1": 0.1}
{"gene": "Vha14-1", "dsRNA": "DRSC07571", "z-score, replicate 1": -0.1}
{"gene": "att-ORFB + DPCoAC", "dsRNA": "DRSC15556", "z-score, replicate 1": 0.29}
{"gene": "CG33116", "dsRNA": "DRSC02045", "z-score, replicate 1": 0.35}
{"gene": "CG13428", "dsRNA": "DRSC06390", "z-score, replicate 1": 0.46}
{"gene": "Acox3", "dsRNA": "DRSC03251", "z-score, replicate 1": 0.7}
{"gene": "Ugt36F1", "dsRNA": "DRSC02601", "z-score, replicate 1": 0.22}
{"gene": "CG13654", "dsRNA": "DRSC14654", "z-score, replicate 1": 0.21}
{"gene": "brp", "dsRNA": "DRSC06245", "z-score, replicate 1": 0.27}
{"gene": "brp", "dsRNA": "DRSC06246", "z-score, replicate 1": 0.06}
{"gene": "brp", "dsRNA": "DRSC06801", "z-score, replicate 1": 0.37}
{"gene": "brp", "dsRNA": "DRSC21893", "z-score, replicate 1": 0.13}
{"gene": "CG42561", "dsRNA": "DRSC05676", "z-score, replicate 1": 0.16}
{"gene": "hlk", "dsRNA": "DRSC05021", "z-score, replicate 1": 0.02}
{"gene": "hlk", "dsRNA": "DRSC05022", "z-score, replicate 1": -0.12}
{"gene": "CG5639", "dsRNA": "DRSC15851", "z-score, replicate 1": 0.32}
{"gene": "alphaTry", "dsRNA": "DRSC07577", "z-score, replicate 1": 0.32}
{"gene": "Nrk", "dsRNA": "DRSC07480", "z-score, replicate 1": 0.31}
{"gene": "meep", "dsRNA": "DRSC07948", "z-score, replicate 1": 0.72}
{"gene": "atk", "dsRNA": "DRSC11418", "z-score, replicate 1": -0.81}
{"gene": "atk", "dsRNA": "DRSC11769", "z-score, replicate 1": 0.33}
{"gene": "dar1", "dsRNA": "DRSC08049", "z-score, replicate 1": 0.27}
{"gene": "dar1", "dsRNA": "DRSC08233", "z-score, replicate 1": -0.03}
{"gene": "CG11231 (retired record)", "dsRNA": "DRSC17207", "z-score, replicate 1": 0.5}
{"gene": "Cp110", "dsRNA": "DRSC20630", "z-score, replicate 1": 0.16}
{"gene": "Cp110", "dsRNA": "DRSC21716", "z-score, replicate 1": -0.49}
{"gene": "su(sable)", "dsRNA": "DRSC18839", "z-score, replicate 1": 0.53}
{"gene": "CG9377", "dsRNA": "DRSC03217", "z-score, replicate 1": 0.32}
{"gene": "CG10205", "dsRNA": "DRSC05979", "z-score, replicate 1": -0.85}
{"gene": "Pus1", "dsRNA": "DRSC15548", "z-score, replicate 1": 0.23}
{"gene": "CG13038", "dsRNA": "DRSC09919", "z-score, replicate 1": 0.36}
{"gene": "CG4607", "dsRNA": "DRSC18375", "z-score, replicate 1": 0.19}
{"gene": "CG9776", "dsRNA": "DRSC12127", "z-score, replicate 1": 0.54}
{"gene": "CG14401", "dsRNA": "DRSC02385", "z-score, replicate 1": 0.31}
{"gene": "CG14401", "dsRNA": "DRSC21710", "z-score, replicate 1": 1.07}
{"gene": "CkIalpha", "dsRNA": "DRSC20231", "z-score, replicate 1": 0.26}
{"gene": "CkIalpha", "dsRNA": "DRSC22609", "z-score, replicate 1": 2.48}
{"gene": "CG43075", "dsRNA": "DRSC19074", "z-score, replicate 1": 0.17}
{"gene": "CG15279", "dsRNA": "DRSC01935", "z-score, replicate 1": 0.44}
{"gene": "asRNA:CR33945", "dsRNA": "DRSC14080", "z-score, replicate 1": 0.38}
{"gene": "CG17746", "dsRNA": "DRSC08521", "z-score, replicate 1": 0.52}
{"gene": "gus", "dsRNA": "DRSC04885", "z-score, replicate 1": 0.28}
{"gene": "gus", "dsRNA": "DRSC04886", "z-score, replicate 1": 0.36}

Ordered by “z-score, replicate 1” (highest first): some entries from above
{"gene": "CG10479", "dsRNA": "DRSC09733", "z-score, replicate 1": 0.72}
{"gene": "Ir67c", "dsRNA": "DRSC22097", "z-score, replicate 1": 0.35}
